# Reference: the supplement of paper PMC10849652
# By UniProt entry, the sequences of proteins in these tests, tags left out. Where a name states a change or a piece, a line headed by the entry shows the natural chain unless it says otherwise.
# UniProt Q13535: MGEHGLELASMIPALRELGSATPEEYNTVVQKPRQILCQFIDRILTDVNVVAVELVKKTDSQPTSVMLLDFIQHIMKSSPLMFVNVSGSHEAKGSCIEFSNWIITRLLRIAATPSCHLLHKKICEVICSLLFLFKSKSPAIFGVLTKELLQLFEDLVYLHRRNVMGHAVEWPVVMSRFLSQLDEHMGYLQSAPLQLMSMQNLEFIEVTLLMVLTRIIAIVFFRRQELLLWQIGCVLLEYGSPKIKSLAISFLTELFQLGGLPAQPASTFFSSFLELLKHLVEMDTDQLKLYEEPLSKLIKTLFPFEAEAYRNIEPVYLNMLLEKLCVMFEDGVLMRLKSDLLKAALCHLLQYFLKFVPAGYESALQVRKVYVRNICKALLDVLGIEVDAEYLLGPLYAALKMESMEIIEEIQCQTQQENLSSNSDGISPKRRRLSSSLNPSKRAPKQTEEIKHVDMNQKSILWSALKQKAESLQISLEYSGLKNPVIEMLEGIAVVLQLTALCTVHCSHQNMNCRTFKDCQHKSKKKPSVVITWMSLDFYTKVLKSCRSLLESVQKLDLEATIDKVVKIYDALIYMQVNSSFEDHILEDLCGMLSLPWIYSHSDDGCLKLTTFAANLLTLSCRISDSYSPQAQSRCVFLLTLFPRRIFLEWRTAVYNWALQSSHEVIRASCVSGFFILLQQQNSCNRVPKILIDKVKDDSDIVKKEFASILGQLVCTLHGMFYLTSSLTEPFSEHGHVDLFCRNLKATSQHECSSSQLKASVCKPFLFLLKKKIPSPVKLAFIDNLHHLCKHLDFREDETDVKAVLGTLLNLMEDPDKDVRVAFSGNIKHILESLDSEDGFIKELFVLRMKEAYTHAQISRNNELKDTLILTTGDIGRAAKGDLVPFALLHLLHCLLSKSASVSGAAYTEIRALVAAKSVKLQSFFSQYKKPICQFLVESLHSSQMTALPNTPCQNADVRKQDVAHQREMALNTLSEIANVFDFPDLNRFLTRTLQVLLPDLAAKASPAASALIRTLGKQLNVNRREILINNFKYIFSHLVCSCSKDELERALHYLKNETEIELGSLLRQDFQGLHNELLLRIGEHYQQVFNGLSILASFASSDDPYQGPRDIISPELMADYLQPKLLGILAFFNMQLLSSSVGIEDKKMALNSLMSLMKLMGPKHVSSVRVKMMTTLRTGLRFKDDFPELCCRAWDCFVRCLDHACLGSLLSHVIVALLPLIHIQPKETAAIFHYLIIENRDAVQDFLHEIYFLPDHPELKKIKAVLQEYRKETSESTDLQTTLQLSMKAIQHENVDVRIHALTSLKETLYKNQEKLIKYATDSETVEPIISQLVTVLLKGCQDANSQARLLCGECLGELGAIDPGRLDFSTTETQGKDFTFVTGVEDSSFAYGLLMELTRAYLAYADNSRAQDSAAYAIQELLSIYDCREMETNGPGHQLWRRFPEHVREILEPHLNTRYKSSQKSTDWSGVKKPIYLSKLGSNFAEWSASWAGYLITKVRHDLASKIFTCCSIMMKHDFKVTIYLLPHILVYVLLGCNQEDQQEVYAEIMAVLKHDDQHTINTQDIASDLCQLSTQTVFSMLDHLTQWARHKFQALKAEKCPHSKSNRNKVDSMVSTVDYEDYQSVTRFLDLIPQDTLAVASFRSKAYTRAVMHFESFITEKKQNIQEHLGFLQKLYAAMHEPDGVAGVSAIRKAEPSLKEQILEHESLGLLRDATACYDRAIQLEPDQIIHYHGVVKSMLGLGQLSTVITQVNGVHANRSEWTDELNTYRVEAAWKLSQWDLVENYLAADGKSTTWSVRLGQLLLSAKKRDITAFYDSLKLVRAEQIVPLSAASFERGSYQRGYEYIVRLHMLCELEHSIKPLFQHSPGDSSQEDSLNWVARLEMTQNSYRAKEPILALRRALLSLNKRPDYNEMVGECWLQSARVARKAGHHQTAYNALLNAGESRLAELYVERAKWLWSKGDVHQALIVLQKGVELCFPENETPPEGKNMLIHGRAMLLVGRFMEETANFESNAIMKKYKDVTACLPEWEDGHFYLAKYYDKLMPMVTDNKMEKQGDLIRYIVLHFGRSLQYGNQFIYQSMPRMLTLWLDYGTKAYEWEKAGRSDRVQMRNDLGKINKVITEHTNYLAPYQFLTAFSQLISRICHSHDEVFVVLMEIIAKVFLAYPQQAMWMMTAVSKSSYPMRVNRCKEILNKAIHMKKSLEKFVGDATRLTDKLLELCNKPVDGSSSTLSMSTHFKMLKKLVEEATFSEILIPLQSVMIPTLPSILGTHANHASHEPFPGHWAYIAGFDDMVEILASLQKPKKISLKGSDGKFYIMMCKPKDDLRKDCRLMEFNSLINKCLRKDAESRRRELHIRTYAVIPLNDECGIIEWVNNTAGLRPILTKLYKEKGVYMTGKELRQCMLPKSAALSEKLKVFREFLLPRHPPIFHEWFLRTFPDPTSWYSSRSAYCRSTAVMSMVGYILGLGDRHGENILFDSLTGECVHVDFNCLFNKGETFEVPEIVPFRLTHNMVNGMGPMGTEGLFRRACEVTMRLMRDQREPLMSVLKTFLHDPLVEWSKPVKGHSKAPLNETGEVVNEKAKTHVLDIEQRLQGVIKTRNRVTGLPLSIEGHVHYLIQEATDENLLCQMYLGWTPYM
# UniProt Q15059, whole entry, looked up: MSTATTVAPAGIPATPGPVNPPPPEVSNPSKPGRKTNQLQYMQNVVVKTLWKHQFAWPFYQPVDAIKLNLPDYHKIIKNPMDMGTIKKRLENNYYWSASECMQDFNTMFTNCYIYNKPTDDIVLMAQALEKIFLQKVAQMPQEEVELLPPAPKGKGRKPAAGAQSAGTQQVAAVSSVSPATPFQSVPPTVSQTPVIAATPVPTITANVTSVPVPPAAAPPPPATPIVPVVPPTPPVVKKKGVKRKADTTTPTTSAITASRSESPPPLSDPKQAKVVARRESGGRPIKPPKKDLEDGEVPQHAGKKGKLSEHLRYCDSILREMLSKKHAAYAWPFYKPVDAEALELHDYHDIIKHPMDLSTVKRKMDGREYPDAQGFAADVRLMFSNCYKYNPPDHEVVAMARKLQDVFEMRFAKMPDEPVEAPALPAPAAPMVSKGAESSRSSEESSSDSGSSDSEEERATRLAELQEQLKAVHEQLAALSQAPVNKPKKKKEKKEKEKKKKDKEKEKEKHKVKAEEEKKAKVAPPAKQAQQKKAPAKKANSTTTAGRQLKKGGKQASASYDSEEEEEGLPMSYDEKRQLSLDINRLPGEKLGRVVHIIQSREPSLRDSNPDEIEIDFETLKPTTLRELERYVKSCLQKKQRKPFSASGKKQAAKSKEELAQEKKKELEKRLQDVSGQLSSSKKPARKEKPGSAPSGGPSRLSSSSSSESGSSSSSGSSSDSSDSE
# UniProt Q9NUP1: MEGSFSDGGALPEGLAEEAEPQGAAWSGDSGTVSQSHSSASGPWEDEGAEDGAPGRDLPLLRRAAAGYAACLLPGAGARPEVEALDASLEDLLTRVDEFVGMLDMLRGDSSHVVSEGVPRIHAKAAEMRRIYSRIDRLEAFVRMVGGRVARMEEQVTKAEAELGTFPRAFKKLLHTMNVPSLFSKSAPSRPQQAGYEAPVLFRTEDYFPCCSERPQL
# UniProt P07738: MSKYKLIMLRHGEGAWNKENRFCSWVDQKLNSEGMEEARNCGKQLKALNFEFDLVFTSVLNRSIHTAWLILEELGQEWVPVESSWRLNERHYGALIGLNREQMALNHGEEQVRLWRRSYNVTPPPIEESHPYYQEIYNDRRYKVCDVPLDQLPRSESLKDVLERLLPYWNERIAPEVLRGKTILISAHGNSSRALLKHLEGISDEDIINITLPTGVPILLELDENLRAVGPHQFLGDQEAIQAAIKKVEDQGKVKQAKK
# UniProt Q6QNY0: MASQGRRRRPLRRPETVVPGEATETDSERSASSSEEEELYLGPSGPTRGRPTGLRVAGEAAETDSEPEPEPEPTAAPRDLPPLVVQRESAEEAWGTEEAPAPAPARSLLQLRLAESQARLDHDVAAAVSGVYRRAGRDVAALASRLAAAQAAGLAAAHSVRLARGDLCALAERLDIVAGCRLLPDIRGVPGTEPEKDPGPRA
# UniProt Q9H3K6: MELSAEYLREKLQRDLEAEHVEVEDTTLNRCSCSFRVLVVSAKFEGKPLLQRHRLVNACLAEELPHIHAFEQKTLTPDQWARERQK
# UniProt Q8TDN6: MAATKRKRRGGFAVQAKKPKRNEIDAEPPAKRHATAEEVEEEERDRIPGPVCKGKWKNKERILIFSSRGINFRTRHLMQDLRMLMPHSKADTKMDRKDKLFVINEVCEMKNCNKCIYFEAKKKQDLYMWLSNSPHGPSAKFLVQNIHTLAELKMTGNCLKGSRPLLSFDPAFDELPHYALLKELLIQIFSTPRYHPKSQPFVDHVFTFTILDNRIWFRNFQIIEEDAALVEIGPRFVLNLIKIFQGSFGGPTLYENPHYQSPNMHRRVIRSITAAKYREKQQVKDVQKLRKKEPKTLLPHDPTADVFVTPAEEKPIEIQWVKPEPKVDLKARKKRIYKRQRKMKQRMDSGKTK
# UniProt O95999: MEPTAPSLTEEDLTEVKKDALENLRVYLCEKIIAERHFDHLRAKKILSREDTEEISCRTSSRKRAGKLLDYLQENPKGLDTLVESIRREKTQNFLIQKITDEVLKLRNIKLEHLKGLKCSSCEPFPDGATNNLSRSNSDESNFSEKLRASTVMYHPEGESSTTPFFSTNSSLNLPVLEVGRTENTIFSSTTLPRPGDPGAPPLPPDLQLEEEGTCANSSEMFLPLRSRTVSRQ
# UniProt Q5VW32: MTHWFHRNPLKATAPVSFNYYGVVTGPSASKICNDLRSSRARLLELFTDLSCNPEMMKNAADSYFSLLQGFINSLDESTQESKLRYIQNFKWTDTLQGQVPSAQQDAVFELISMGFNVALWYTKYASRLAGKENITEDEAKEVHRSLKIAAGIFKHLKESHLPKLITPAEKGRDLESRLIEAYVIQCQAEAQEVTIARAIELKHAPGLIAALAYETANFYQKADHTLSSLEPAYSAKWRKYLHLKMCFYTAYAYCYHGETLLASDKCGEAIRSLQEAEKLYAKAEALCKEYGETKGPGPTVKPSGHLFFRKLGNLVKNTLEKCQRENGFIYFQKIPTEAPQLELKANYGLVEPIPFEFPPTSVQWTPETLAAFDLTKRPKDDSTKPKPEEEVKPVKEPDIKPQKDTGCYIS
# UniProt Q9HB09: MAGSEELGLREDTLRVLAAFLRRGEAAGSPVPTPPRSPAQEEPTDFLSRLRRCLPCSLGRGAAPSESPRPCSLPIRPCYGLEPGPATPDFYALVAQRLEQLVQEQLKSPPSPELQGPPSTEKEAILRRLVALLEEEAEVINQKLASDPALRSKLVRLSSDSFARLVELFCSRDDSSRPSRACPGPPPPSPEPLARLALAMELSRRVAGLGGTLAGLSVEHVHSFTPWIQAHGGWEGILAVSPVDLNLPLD
# UniProt O15382: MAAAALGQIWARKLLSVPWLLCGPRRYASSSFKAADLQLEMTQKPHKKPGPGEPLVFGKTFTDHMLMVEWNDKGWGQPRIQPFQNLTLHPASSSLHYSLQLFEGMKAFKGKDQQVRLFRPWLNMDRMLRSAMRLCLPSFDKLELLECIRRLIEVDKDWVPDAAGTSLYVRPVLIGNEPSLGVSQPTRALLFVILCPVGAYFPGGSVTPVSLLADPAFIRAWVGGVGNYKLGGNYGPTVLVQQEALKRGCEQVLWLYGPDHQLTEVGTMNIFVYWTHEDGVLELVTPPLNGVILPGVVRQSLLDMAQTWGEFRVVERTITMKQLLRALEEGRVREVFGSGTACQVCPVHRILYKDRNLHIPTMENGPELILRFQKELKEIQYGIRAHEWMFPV
# UniProt O75934: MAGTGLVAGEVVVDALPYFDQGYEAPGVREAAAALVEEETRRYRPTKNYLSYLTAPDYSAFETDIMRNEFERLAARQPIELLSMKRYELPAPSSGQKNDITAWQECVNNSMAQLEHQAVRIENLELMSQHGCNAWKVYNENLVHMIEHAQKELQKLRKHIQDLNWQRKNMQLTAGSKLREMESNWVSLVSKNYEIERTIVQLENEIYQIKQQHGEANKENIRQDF
# UniProt P55957: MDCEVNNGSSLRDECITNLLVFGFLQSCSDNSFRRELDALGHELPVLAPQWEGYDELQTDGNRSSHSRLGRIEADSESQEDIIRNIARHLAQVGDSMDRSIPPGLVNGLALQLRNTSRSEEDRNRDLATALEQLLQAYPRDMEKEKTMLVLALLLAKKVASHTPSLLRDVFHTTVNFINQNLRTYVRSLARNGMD
# UniProt Q67FW5: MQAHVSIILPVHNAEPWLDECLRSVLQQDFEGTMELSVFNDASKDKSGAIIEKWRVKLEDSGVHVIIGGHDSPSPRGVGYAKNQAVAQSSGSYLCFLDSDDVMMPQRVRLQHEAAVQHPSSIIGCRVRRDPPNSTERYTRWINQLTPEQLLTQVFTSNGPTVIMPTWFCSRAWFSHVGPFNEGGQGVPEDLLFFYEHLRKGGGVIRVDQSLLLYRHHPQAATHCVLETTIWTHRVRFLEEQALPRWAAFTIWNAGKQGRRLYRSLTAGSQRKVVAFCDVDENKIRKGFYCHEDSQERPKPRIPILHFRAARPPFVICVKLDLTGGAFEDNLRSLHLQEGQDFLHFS
# This is one part of the list.
# Compound: NC(=O)c1cnc(N[C@@H]2CCCC[C@@H]2N)nc1Nc1cccc(-n2nccn2)c1
# Assay: log2 fold change, soluble protein after heating vs DMSO (PISA); higher = thermal stabilisation; K562 cells, 10 uM, 30 min; active = over 0.2 and 3.5 SD of the protein, either way, in both replicates (recomputed)
# Method in brief: (§1)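 Soluble protein was quantified by TMTpro 16plex LC-MS/MS after channel sums were equalised. It was obtained as the supernatant after 21,000xg for 90 min from pooled aliquots of K562 cells (2×10^6 cells/mL, 10 μM compound, 30 min) heated for 3 min across 48°C-58°C and extracted in PBS with 0.5% NP-40 at 4°C. Thermal stability values are relative to control samples and come from duplicates. They are given as log2 fold changes.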
row,Target,log2 fold change
1,ATR (UniProt Q13535),inactive: 0.002
2,BRD3 (UniProt Q15059),inactive: -0.026
3,BRIP1 (UniProt Q9BX63),inactive: -0.139
4,B2M (UniProt P61769),inactive: -0.091
5,BAG4 (UniProt O95429),inactive: -0.02
6,ATRIP (UniProt Q8WXE1),inactive: -0.059
7,BAG1 (UniProt Q99933),inactive: 0.007
8,BLOC1S4 (UniProt Q9NUP1),inactive: 0.02
9,BAX isoform 2 (UniProt Q07812),inactive: 0.049
10,ATRN (UniProt O75882),inactive: -0.023
11,BCAP31 isoform 2 (UniProt P51572),inactive: -0.006
12,BLVRA (UniProt P53004),inactive: -0.032
13,BPGM (UniProt P07738),inactive: 0.018
14,BLOC1S3 (UniProt Q6QNY0),inactive: 0
15,ATRAID isoform 3 (UniProt Q6UW56),inactive: 0.01
16,ATXN2L (UniProt Q8WWM7),inactive: -0.008
17,BOLA2 (UniProt Q9H3K6),inactive: -0.05

row,Target,log2 fold change
1,B4GAT1 (UniProt O43505),inactive: 0.093
2,BABAM2 (UniProt Q9NXR7),inactive: 0.022
3,BRIX1 (UniProt Q8TDN6),inactive: -0.025
4,BCL10 (UniProt O95999),inactive: -0.038
5,BROX (UniProt Q5VW32),inactive: -0.073
6,BBC3 (UniProt Q9BXH1),inactive: -0.093
7,BCL2L12 (UniProt Q9HB09),inactive: 0.056
8,BCAT2 (UniProt O15382),inactive: -0.052
9,BCKDHB (UniProt P21953),inactive: 0.053
10,BCAS2 (UniProt O75934),inactive: 0.14
11,BOP1 (UniProt Q14137),inactive: -0.027
12,BAK1 (UniProt Q16611),inactive: 0.042
13,BID isoform 2 (UniProt P55957),inactive: 0.019
14,BAG2 (UniProt O95816),inactive: 0.057
15,BCAP29 isoform 2 (UniProt Q9UHQ4),inactive: 0.049
16,B3GNTL1 (UniProt Q67FW5),inactive: 0

# Compound: NC1(c2ccc(-c3nc4ccn5c(=O)[nH]nc5c4cc3-c3ccccc3)cc2)CCC1
# Assay: as above
# Method in brief: as §1
row,Target,log2 fold change
1,ATR (UniProt Q13535),inactive: 0.044
2,BRD3 (UniProt Q15059),inactive: 0.017
3,B2M (UniProt P61769),inactive: 0.025
4,BAG4 (UniProt O95429),inactive: -0.039
5,ATRIP (UniProt Q8WXE1),inactive: -0.133
6,BAG1 (UniProt Q99933),inactive: 0.033
7,BLOC1S4 (UniProt Q9NUP1),inactive: 0.001
8,BAX isoform 2 (UniProt Q07812),inactive: -0.016
9,ATRN (UniProt O75882),inactive: -0.073
10,BCAP31 isoform 2 (UniProt P51572),inactive: 0.013
11,BLVRA (UniProt P53004),inactive: -0.157
12,BPGM (UniProt P07738),inactive: 0.029
13,BLOC1S3 (UniProt Q6QNY0),inactive: -0.014
14,ATRAID isoform 3 (UniProt Q6UW56),inactive: -0.015
15,ATXN2L (UniProt Q8WWM7),inactive: -0.01
16,BOLA2 (UniProt Q9H3K6),inactive: -0.05

row,Target,log2 fold change
1,BABAM2 (UniProt Q9NXR7),inactive: -0.014
2,BRIX1 (UniProt Q8TDN6),inactive: 0.171
3,BCL10 (UniProt O95999),inactive: -0.051
4,BROX (UniProt Q5VW32),inactive: -0.086
5,BBC3 (UniProt Q9BXH1),inactive: 0.027
6,BCL2L12 (UniProt Q9HB09),inactive: -0.156
7,BCAT2 (UniProt O15382),inactive: -0.005
8,BCKDHB (UniProt P21953),inactive: -0.089
9,BCAS2 (UniProt O75934),inactive: 0.07
10,BOP1 (UniProt Q14137),inactive: 0.04
11,BAK1 (UniProt Q16611),inactive: -0.031
12,BID isoform 2 (UniProt P55957),inactive: -0.037
13,BAG2 (UniProt O95816),inactive: 0.134
14,BCAP29 isoform 2 (UniProt Q9UHQ4),inactive: 0.034
15,B3GNTL1 (UniProt Q67FW5),inactive: -0.017

# Compound: NCC(=O)Nc1ccc(-n2nc(C(F)(F)F)cc2-c2ccc3c(ccc4ccccc43)c2)cc1
# Assay: as above
# Method in brief: as §1
row,Target,log2 fold change
1,ATR (UniProt Q13535),inactive: -0.089
2,BRD3 (UniProt Q15059),inactive: 0.119
3,BRIP1 (UniProt Q9BX63),inactive: -0.099
4,B2M (UniProt P61769),inactive: 0.083
5,BAG4 (UniProt O95429),inactive: -0.017
6,ATRIP (UniProt Q8WXE1),inactive: -0.033
7,BAG1 (UniProt Q99933),inactive: -0.04
8,BLOC1S4 (UniProt Q9NUP1),inactive: -0.043
9,BAX isoform 2 (UniProt Q07812),inactive: -0.006
10,ATRN (UniProt O75882),inactive: -0.031
11,BCAP31 isoform 2 (UniProt P51572),inactive: -0.005
12,BLVRA (UniProt P53004),inactive: -0.01
13,BPGM (UniProt P07738),inactive: 0.053
14,BLOC1S3 (UniProt Q6QNY0),inactive: -0.023
15,ATRAID isoform 3 (UniProt Q6UW56),inactive: -0.06
16,ATXN2L (UniProt Q8WWM7),inactive: -0.041
17,BOLA2 (UniProt Q9H3K6),inactive: -0.012

row,Target,log2 fold change
1,B4GAT1 (UniProt O43505),inactive: 0.105
2,BABAM2 (UniProt Q9NXR7),inactive: 0.117
3,BRIX1 (UniProt Q8TDN6),inactive: 0.132
4,BCL10 (UniProt O95999),inactive: -0.066
5,BROX (UniProt Q5VW32),inactive: -0.044
6,BBC3 (UniProt Q9BXH1),inactive: -0.026
7,BCL2L12 (UniProt Q9HB09),inactive: 0.011
8,BCAT2 (UniProt O15382),inactive: 0.009
9,BCKDHB (UniProt P21953),inactive: 0.087
10,BCAS2 (UniProt O75934),inactive: -0.023
11,BOP1 (UniProt Q14137),inactive: -0.018
12,BAK1 (UniProt Q16611),inactive: -0.033
13,BID isoform 2 (UniProt P55957),inactive: 0.052
14,BAG2 (UniProt O95816),inactive: 0.067
15,BCAP29 isoform 2 (UniProt Q9UHQ4),inactive: -0.094
16,B3GNTL1 (UniProt Q67FW5),inactive: -0.12
